Laboratory results taken from patent US9475914B2, “Porous polymer monoliths, processes for preparation and use thereof” (UNIVERSITY OF TASMANIA, priority 2010, dated 2016).
Like-named read-outs stand apart in the source and are kept apart here.

What was measured:
[1] = Simultaneous quantification of fluconazole and propranolol from monolithic sorbent, whole blood; conditions: simultaneous analysis, whole rat blood
[2] = Inter-assay accuracy and precision, dried blood spots on poly(HEMA-co-EDMA) monolithic sorbent, LC-MS/MS; set-up: species or system rat; conditions: for Mean Calculated Concentration: whole rat blood, n=8
[3] = not given; remark: listed apart in the source
[4] = DPS, Overall inter-assay, nominal 20 ng/mL
[5] = DPS, Overall inter-assay, nominal 70 ng/mL
[6] = DPS, Overall inter-assay, nominal 500 ng/mL
[7] = DPS, Overall inter-assay, nominal 800 ng/mL

OC(Cn1cncn1)(Cn1cncn1)c1ccc(F)cc1F [Fluconazole]
Precision (DPS, Batch 1, nominal 20 ng/mL): 3 | Accuracy (DPS, Batch 1, nominal 20 ng/mL, deviation from nominal): 1 | Precision (DPS, Batch 1, nominal 70 ng/mL): 5 | Accuracy (DPS, Batch 1, nominal 70 ng/mL, deviation from nominal): 1 | Precision (DPS, Batch 1, nominal 500 ng/mL): 5 | Accuracy (DPS, Batch 1, nominal 500 ng/mL, deviation from nominal): 1 | Precision (DPS, Batch 1, nominal 800 ng/mL): 3 | Accuracy (DPS, Batch 1, nominal 800 ng/mL, deviation from nominal): 1 | Average concentration (DPS, Batch 1 intra-assay, nominal 20 ng/mL, n=6): 20.12 ng/mL | Average concentration (DPS, Batch 1 intra-assay, nominal 70 ng/mL, n=6): 69.35 ng/mL | Average concentration (DPS, Batch 1 intra-assay, nominal 500 ng/mL, n=6): 496.17 ng/mL | Average concentration (DPS, Batch 1 intra-assay, nominal 800 ng/mL, n=6): 805.83 ng/mL | Average concentration [4]: 20.11 ng/mL | Precision [4]: 3 | Accuracy (DPS, Overall inter-assay, nominal 20 ng/mL, deviation from nominal): 1 | Average concentration [5]: 68.2 ng/mL | Precision [5]: 5 | Accuracy (DPS, Overall inter-assay, nominal 70 ng/mL, deviation from nominal): 3 | Average concentration [6]: 495.50 ng/mL | Precision [6]: 4 | Accuracy (DPS, Overall inter-assay, nominal 500 ng/mL, deviation from nominal): 1 | Average concentration [7]: 810.833 ng/mL | Precision [7]: 2 | Accuracy (DPS, Overall inter-assay, nominal 800 ng/mL, deviation from nominal): 1 | Accuracy (dilution above HLQ, plasma): 32% | Precision (dilution above HLQ, plasma): 7% | Average concentration (dilution above HLQ, plasma spiked 20000 ng/mL, diluted, n=6): 1360 | Accuracy ([1]; nominal 5 ng/mL): 123% | Mean Calculated Conc. ([1]; nominal 5 ng/mL): 6.16 ng/mL | Accuracy ([1]; nominal 20 ng/mL): 93% | Mean Calculated Conc. ([1]; nominal 20 ng/mL): 18.60 ng/mL | Accuracy ([1]; nominal 70 ng/mL): 119% | Mean Calculated Conc. ([1]; nominal 70 ng/mL): 83.38 ng/mL | Accuracy ([1]; nominal 500 ng/mL): 100% | Mean Calculated Conc. ([1]; nominal 500 ng/mL): 500.25 ng/mL | Mean Calculated Concentration ([2]; nominal 5 ng/mL): 5.69 ng/mL | Mean Calculated Concentration ([2]; nominal 20 ng/mL): 21.23 ng/mL | Mean Calculated Concentration ([2]; nominal 70 ng/mL): 65.85 ng/mL | Mean Calculated Concentration ([2]; nominal 500 ng/mL): 492.00 ng/mL | lower limit of quantification (LLOQ) ([2]; whole blood): 5 ng/mL | Accuracy ([3]; DBS, Batch 1, nominal 20 ng/mL, deviation from nominal): 13 | Accuracy ([3]; DBS, Batch 1, nominal 70 ng/mL, deviation from nominal): 5 | Accuracy ([3]; DBS, Batch 1, nominal 500 ng/mL, deviation from nominal): 2 | Accuracy ([3]; DBS, Batch 1, nominal 800 ng/mL, deviation from nominal): 10 | Average concentration ([3]; DBS, Batch 1 intra-assay, nominal 20 ng/mL, n=6): 17.35 ng/mL | Average concentration ([3]; DBS, Batch 1 intra-assay, nominal 70 ng/mL, n=6): 66.33 ng/mL | Average concentration ([3]; DBS, Batch 1 intra-assay, nominal 500 ng/mL, n=6): 488.67 ng/mL | Average concentration ([3]; DBS, Batch 1 intra-assay, nominal 800 ng/mL, n=6): 724.00 ng/mL | Accuracy ([3]; DBS, Batch 2, nominal 20 ng/mL, deviation from nominal): 2 | Accuracy ([3]; DBS, Batch 2, nominal 70 ng/mL, deviation from nominal): 5 | Accuracy ([3]; DBS, Batch 2, nominal 500 ng/mL, deviation from nominal): 6 | Accuracy ([3]; DBS, Batch 2, nominal 800 ng/mL, deviation from nominal): 10 | Average concentration ([3]; DBS, Batch 2 intra-assay, nominal 20 ng/mL, n=6): 20.32 ng/mL | Average concentration ([3]; DBS, Batch 2 intra-assay, nominal 70 ng/mL, n=6): 66.33 ng/mL | Average concentration ([3]; DBS, Batch 2 intra-assay, nominal 500 ng/mL, n=6): 530.00 ng/mL | Average concentration ([3]; DBS, Batch 2 intra-assay, nominal 800 ng/mL, n=6): 878.80 ng/mL | Accuracy ([3]; DBS, Batch 3, nominal 20 ng/mL, deviation from nominal): 9 | Accuracy ([3]; DBS, Batch 3, nominal 70 ng/mL, deviation from nominal): 2 | Accuracy ([3]; DBS, Batch 3, nominal 500 ng/mL, deviation from nominal): 7 | Accuracy ([3]; DBS, Batch 3, nominal 800 ng/mL, deviation from nominal): 2 | Average concentration ([3]; DBS, Batch 3 intra-assay, nominal 20 ng/mL, n=6): 18.25 ng/mL | Average concentration ([3]; DBS, Batch 3 intra-assay, nominal 70 ng/mL, n=6): 71.12 ng/mL | Average concentration ([3]; DBS, Batch 3 intra-assay, nominal 500 ng/mL, n=6): 465.60 ng/mL | Average concentration ([3]; DBS, Batch 3 intra-assay, nominal 800 ng/mL, n=6): 787.83 ng/mL | Average concentration ([3]; DBS, Overall inter-assay, nominal 20 ng/mL): 18.25 ng/mL | Accuracy ([3]; DBS, Overall inter-assay, nominal 20 ng/mL, deviation from nominal): 7 | Average concentration ([3]; DBS, Overall inter-assay, nominal 70 ng/mL): 71.12 ng/mL | Accuracy ([3]; DBS, Overall inter-assay, nominal 70 ng/mL, deviation from nominal): 3 | Average concentration ([3]; DBS, Overall inter-assay, nominal 500 ng/mL): 465.60 ng/mL | Accuracy ([3]; DBS, Overall inter-assay, nominal 500 ng/mL, deviation from nominal): 6 | Average concentration ([3]; DBS, Overall inter-assay, nominal 800 ng/mL): 803.21 ng/mL | Accuracy ([3]; DBS, Overall inter-assay, nominal 800 ng/mL, deviation from nominal): 0 | Accuracy ([3]; dilution above HLQ, blood): 26% | Average concentration ([3]; dilution above HLQ, blood spiked 20000 ng/mL, diluted, n=3): 1483 ng/mL

CC(C)NCC(O)COc1cccc2ccccc12 (centres unmarked) [Propranolol]
Accuracy ([1]; nominal 5 ng/mL): 166% | Mean Calculated Conc. ([1]; nominal 5 ng/mL): 8.30 ng/mL | Accuracy ([1]; nominal 20 ng/mL): 89% | Mean Calculated Conc. ([1]; nominal 20 ng/mL): 17.80 ng/mL | Mean Calculated Conc. ([1]; nominal 70 ng/mL): 78.78 ng/mL | Mean Calculated Conc. ([1]; nominal 500 ng/mL): 535.00 ng/mL
